Measurements published in paper PMC10893636, “Synergistic enhancement of the mouse Pramex1 and Pramel1 in repressing retinoic acid (RA) signaling during gametogenesis” (Cell & Bioscience, 2024).
Results are given in words; binding and its absence hold for the method and conditions named. In cells and extracts the contact can be indirect.

Chains of the proteins cited; added tags and fusions are not shown.
UniProt Q9Z2C8: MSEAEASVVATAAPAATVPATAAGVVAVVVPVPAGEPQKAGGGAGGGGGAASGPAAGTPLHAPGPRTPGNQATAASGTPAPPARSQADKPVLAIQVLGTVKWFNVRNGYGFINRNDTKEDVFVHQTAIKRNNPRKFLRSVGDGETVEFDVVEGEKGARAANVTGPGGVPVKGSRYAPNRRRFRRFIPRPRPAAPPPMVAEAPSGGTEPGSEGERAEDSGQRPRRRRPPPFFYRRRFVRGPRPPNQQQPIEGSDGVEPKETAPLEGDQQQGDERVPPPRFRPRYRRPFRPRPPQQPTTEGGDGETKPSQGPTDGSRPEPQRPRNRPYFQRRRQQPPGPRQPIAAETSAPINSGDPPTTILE

Biological target: T1, Retinoic acid receptor alpha (RARα) (mouse (endogenous in testis)) (UniProt P11416)
T1 sequence: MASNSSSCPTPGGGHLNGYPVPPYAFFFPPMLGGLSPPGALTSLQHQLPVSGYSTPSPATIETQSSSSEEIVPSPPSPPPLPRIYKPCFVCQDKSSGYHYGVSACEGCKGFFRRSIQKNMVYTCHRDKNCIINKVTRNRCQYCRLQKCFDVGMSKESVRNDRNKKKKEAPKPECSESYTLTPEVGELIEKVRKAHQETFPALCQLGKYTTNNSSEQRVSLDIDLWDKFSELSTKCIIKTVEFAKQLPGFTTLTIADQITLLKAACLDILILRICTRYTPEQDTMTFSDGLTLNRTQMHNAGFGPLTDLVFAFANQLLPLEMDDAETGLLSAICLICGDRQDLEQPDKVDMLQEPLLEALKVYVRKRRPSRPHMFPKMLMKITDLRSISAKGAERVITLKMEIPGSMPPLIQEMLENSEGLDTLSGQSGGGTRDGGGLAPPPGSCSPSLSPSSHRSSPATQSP
Test: co-IP; anti-PRAMEX1 or anti-RARα antibody immobilised on protein A/G magnetic beads (Pierce Crosslink Magnetic IP/co-IP Kit); P7 testis proteins of WT, Pramex1 sKO and Pramel1 sKO mice, overnight at 4 °C; Western blot, band intensity relative to input (set as 1), n = 3

- binding: no binding
Substance: Y-Box Binding Protein 2 (YBX2) (from UniProt Q9Z2C8 1-360)
